Measured values from patent publication US20090136977A1, “NOVEL TARGETS FOR ALZHEIMER'S DISEASE” (priority 2007, published 2009).
Results are given in words; binding and its absence hold for the method and conditions named. For part of these data: A result given as binding can be weak or reduced; the word gives no strength. Sequences can lack the tags named with a protein. For part of these data: Binding seen in cells or lysates may run through a third protein.

The chains behind the UniProt entries cited, without tags or fusion partners. Where a name states a change or a piece, a line headed by the entry shows the natural chain unless it says otherwise.
UniProt P56817: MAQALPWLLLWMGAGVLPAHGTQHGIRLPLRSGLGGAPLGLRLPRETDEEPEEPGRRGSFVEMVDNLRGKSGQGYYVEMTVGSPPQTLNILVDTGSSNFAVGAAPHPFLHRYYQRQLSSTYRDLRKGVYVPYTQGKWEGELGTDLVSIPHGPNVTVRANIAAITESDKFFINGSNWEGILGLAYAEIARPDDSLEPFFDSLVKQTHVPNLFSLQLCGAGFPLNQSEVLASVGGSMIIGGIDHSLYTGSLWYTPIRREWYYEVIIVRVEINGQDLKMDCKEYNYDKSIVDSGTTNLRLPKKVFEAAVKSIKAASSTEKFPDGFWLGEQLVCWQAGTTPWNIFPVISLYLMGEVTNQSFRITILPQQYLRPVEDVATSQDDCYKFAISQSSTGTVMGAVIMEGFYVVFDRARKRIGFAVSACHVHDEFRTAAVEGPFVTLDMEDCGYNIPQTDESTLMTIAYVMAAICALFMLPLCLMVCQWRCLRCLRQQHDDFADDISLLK

Experiments:
[1] = target: affinity purified BACE1 (BACE1-myc, wild type) (UniProt P56817); assay: co-incubation of the purified proteins, immunoprecipitation of BACE1 with an anti-BACE1 N-terminal antibody, Western blot with anti-myc (FIG. 5A)
[2] = target: affinity purified BACE1 (BACE1-myc, wild type) (UniProt P56817); assay: co-immunoprecipitation after co-incubation of the purified proteins in vitro (FIG. 5A)
[3] = target: endogenous BACE1, mature fully-glycosylated form (form 3); assay: anti-myc affinity purification of ATase2-myc from cell lysates, Western blot with anti-BACE1 (FIG. 6A)
[4] = target: endogenous BACE1, mature fully-glycosylated form (form 3); assay: anti-myc affinity purification of ATase1-myc from cell lysates, Western blot with anti-BACE1 (FIG. 6A)
[5] = target: affinity purified BACE1 (BACE1-myc, wild type) (UniProt P56817); assay: co-immunoprecipitation after co-incubation of the purified proteins in vitro (FIG. 3B)
[6] = target: affinity purified BACE1 (BACE1-myc, wild type) (UniProt P56817); assay: co-incubation of the purified proteins, immunoprecipitation of BACE1 with an anti-BACE1 N-terminal antibody, Western blot (FIG. 3B)

Row | binding [1] | binding [2] | binding [3] | binding [4] | binding [5] | binding [6] | Binder
1 | binds | binds | no binding |  |  |  | ATase2 (acetyltransferase 2) with a myc tag at the C-terminus (enzyme, not shown: small tags and cut ends) MAPCHIRKYQESDRQWVVGLLSRGMAEHAPATFRQLLKLPRTLILLLGGPLALLLVSGSWLLALVFSISLFPALWFLAKKPWTEYVDMTLCTDMSDITKSYLSERGSCFWVAESEEKVVGMVGALPVDDPTLREKRLQLFHLFVDSEHRRQGIAKALVRTVLQFARDQGYSEVILDTGTIQLSAMALYQSMGFKKTGQSFFCVWARLVALHTVHFIYHLPSSKVGSL
2 |  |  |  | no binding | binds | binds | ATase1 (acetyltransferase 1) with a myc tag at the C-terminus (enzyme, not shown: small tags and cut ends) MAPYHIRKYQESDRKSVVGLLSRGMAEHAPATFRRLLKLPRTLILLLGGALALLLVSGSWILALVFSLSLLPALWFLAKKPWTRYVDIALRTDMSDITKSYLSECGSCFWVGESEEKVVGTVGALPVDDPTLREKRLQLFHLSVDNEHRGQGIAKALVRTVLQFARDQGYSEVVLDTSNIQLSAMGLYQSLGFKKTGQSFFHVWARLVDLHTVHFIYHLPSAQAGRL
